According to PMC3887093:
These are yes or no findings as the source states them, for the method shown. Some results given as binding are weak or reduced against the parent protein; the word gives no strength.

The chains behind the UniProt entries cited, without tags or fusion partners. Residues count along the entry.
UniProt P22290, residues 211-525: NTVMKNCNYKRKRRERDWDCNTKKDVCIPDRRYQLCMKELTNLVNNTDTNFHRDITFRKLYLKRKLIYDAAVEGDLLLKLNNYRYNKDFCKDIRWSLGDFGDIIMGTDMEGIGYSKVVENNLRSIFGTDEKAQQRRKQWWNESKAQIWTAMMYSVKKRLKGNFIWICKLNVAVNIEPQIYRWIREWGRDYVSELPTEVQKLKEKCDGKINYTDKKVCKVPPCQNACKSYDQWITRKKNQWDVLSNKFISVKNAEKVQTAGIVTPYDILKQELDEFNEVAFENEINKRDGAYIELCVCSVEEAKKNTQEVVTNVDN

Tests used:
[1] = molecular target: Plasmodium vivax Duffy binding protein region II (DBP-RII), recombinant (Plasmodium vivax) (UniProt P22290); experiment: crystal structure; DBP-RII with DARC 14-43, heterotetramer (two DBP-RII, two DARC); 0.1 M HEPES pH 7.4, 20% PEG 6000; 2.6 Å; both purified
[2] = molecular target: Plasmodium vivax Duffy binding protein region II (DBP-RII), recombinant (Plasmodium vivax) (UniProt P22290); experiment: crystal structure; DBP-RII with DARC 16-43, heterotrimer (two DBP-RII, one DARC); 0.1 M HEPES pH 7.4, 20% PEG 6000; 1.95 Å; both purified

Plasmodium vivax Duffy binding protein region II (DBP-RII), recombinant (from UniProt P22290 211-525) (domain or fragment)
binding [1]: binds
binding [2]: binds
